Measurements as given in publication PMC11329664.
No constants are given. Whether binding was seen depends on the method and setting.

The chains behind the UniProt entries cited, without tags or fusion partners. Residues count along the entry.
UniProt P25942, residues 21-277: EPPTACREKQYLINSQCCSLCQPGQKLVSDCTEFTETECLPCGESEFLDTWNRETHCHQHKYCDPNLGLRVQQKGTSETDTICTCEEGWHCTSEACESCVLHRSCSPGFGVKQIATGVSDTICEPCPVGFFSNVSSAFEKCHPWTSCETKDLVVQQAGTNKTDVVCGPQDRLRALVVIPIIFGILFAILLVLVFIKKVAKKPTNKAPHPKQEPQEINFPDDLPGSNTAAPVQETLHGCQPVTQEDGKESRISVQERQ

Assays:
[1] = target: endogenous CD40 on primary B cells (and monocytes) (human (endogenous in primary B cells and monocytes)) (UniProt P25942); assay: scanning fluorescence correlation spectroscopy with brightness-transit statistics (sFCS BTS); CD40 on primary B cells followed through AF647-labelled anti-CD40 Fab-His tethered to a supported lipid bilayer; brightness compared with the plain bilayer; 37 °C
[2] = target: endogenous CD40 on primary B cells (and monocytes) (human (endogenous in primary B cells and monocytes)) (UniProt P25942); assay: scanning fluorescence correlation spectroscopy with brightness-transit statistics (sFCS BTS); CD40 on primary monocytes followed through AF647-labelled anti-CD40 Fab-His tethered to a supported lipid bilayer; 37 °C

binding [1]: no binding
binding [2]: no binding
Substance: endogenous CD40 on primary B cells (and monocytes) (from UniProt P25942 21-277) (receptor)
